At least one compound was matched to its structure with a doubt left.
Molecular target: PKM2 (Homo sapiens, UniProt P14618)
Assay: PKM2 Biochemical Assay
Settings: % maximum response in a biochemical assay as compared with Fructose 1,6-bisphosphate

Amino acid sequences for entries named in this document (tags omitted).
UniProt P14618, whole entry: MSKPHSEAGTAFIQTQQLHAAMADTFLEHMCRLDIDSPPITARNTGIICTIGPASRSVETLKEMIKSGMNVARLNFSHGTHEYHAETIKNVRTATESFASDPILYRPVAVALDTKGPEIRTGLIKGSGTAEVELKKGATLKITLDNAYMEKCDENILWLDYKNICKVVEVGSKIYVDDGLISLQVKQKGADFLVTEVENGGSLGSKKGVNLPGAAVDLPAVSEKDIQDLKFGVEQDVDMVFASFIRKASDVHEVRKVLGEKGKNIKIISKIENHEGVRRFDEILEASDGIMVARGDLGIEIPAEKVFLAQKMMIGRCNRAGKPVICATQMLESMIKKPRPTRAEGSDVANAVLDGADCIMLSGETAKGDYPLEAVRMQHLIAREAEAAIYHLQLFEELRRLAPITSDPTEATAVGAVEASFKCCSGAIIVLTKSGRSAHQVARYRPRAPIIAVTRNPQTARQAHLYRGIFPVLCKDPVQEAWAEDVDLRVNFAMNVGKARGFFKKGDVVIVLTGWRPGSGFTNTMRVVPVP

## O=C(c1cc(C(F)(F)F)n[nH]1)N(Cc1cccc2[nH]c(=O)sc12)CC1CCC1 [Example 7, 3-trifluoromethyl-N-(cyclobutylmethyl)-N-((2-oxo-2,3-dihydrobenzo[d]thiazol-7-yl)methyl)-1H-pyrazole-5-carboxamide]
  Max. Resp.: 87%

## NC1CC(N(Cc2ccccc2Cl)C(=O)c2cc(C(F)(F)F)n[nH]2)C1 (stereo not drawn) [Example 226, N-(2-chlorobenzyl)-N-(3-aminocyclobutyl)-3-(trifluoromethyl)-1H-pyrazole-5-carboxamide]
  Max. Resp.: 80%

## Nc1cccc(Cl)c1CN(CCN1CCC(F)CC1)C(=O)c1cc(C(F)(F)F)n[nH]1 [Example 238, N-(2-amino-6-chlorobenzyl)-3-(trifluoromethyl)-N-(2-(4-fluoropiperidin-1-yl)ethyl)-1H-pyrazole-5-carboxamide]
  Max. Resp.: 100%

Source: patent US10766865B2, “PKM2 modulators and methods for their use” (TOLERO PHARMACEUTICALS, INC., priority 2012, dated 2020)
